Measurements published in patent US20180369203A1, “METHODS OF TREATING CANCER BY ADMINISTERING A MEK INHIBITOR IN COMBINATION WITH A PROTEASOME INHIBITOR” (The Jackson Laboratory, priority 2015, published 2018).
At least one compound was matched to its structure with a doubt left.

Assays:
[1] = test system: HSF1; experiment: ELISA-based HSF1-DNA binding assay, NIH3T3 nuclear proteins; assay type: cell-based, mouse; conditions: NIH3T3, immediately after HS; 20 μM U0126 or 20 nM AZD6244 for 3 hr
Experimental: (A) NIH3T3 cells were treated with HS at 43° C. for 30 min, 10 μM tubastatin A for 5 hr, 40 μM VER155008 for 1 hr, 500 nM MG132 for 1 hr, 200 nM 17-DMAG for 1 hr, and 2.5 mM azetidine for 15 min (B) The dual ELK1 reporter system, comprising a serum response element (SRE)-driven secreted embryonic alkaline phosphatase (SEAP) plasmid and a CMV-driven Gaussia luciferase (GLuc) plasmid, was transfected into HEK293T cells. After 24 hr, cells were treatments as in (A) and recovered overnight before measuring reporter activities (mean±SD, n=6, ANOVA). (C and D) NIH3T3 cells were treated with 20 μM U0126 or 20 nM AZD6244 for 3 hr followed by HS and 4-hr recovery. mRNA levels were quantitated by qRT-PCR (mean±SD, n=3, Student's t-test). (E) Immediately after HS, nuclear proteins of NIH3T3 cells treated as in (C) were extracted to measure HSF1-DNA binding by an ELISA-based assay (mean±SD, n=3, ANOVA). (F) HEK293T cells were transfected with dual HSF1 reporter plasmids, a heat-shock element (HSE)-driven SEAP plasmid and a CMV-GLuc plasmid. […] (G) HEK293T cells were treated with different inhibitors overnight. […] After 24 hr, cells were heat shocked at 43° C. for 30 min followed by overnight recovery (mean±SD, n=3, ANOVA). (L)-(O) HEK293T cells were transfected with siRNAs for 48 hr followed by transfection with dual HSF1 reporter plasmids for 24 hr before HS (mean±SD, n=6, ANOVA). […]

[2] = test system: A2058 cells; experiment: Luciferase refolding assay with lysates of A2058 cells; assay type: cell-based, human; conditions: 20 nM AZD6244
[3] = test system: A2058 cells; experiment: Ubiquitination proteomics (UbiScan, LC-MS/MS) of A2058 cells; assay type: cell-based, human
Experimental: (A) GFP and GFP-GR plasmids were co-transfected into HEK293T cells followed by treatments with 20 nM AZD6244, 20 μM U0126, or 200 nM 17-DMAG for 4 hr. (B) GFP-GR plasmids were co-transfected into HEK293T cells with HA-Ub-K48 plasmids, which encode a mutant ubiquitin that can be conjugated to protein substrates only via lysine 48. Following treatments with 20 nM AZD6244 or 200 nM 17-DMAG for 4 hr, GFP-GR proteins were precipitated and ubiquitination was detected using anti-HA antibodies. (C) Denatured firefly luciferases were incubated with lysates of A2058 cells treated with DMSO or 20 nM AZD6244 (mean±SD, n=4, ANOVA). (D) A2058 cells were treated with 20 nM AZD6244, and ubiquitinated proteins were detected in both detergent-soluble and -insoluble fractions using Lys48-specific ubiquitin antibodies. […] (G) Experimental procedures of MS-based quantitation of ubiquitinated peptides, two technical replicates per treatment. […] (Q) Endogenous RPL15 and RPL3 proteins were detected in A2058 cells treated with 20 nM AZD6244 alone or co-treated with 500 nM MG132. (R) Endogenous RPL15 and RPL3 proteins were detected in A2058 cells stably expressing LacZ or HSF1^S326D with AZD6244 treatment. […]
A2058 cells were grown in 150 mm culture dishes and treated with DMSO or 20 nM AZD6244 for 8 hrs. […] Two technical replicates were analyzed for each treatment.

With `Cn1cnc2c(F)c(Nc3ccc(Br)cc3Cl)c(C(=O)NOCCO)cc21` [AZD6244, selumetinib] the “DNA-binding capacity of HSF1” value [1] was “impaired”, the “chaperoning capacity (refolding of denatured luciferase)” value [2] was “depleted” and the “ubiquitination of c-MYC, RPL15, RPL24, and RPS20” value ([3]; 20 nM AZD6244, 8 hrs vs DMSO) was “decreased”. For the same compound, the “peptide ubiquitination (ubiquitome)” value ([3]; AZD6244 8 hours) was “both increased and decreased”.
